# Assay results: PubChem BioAssay (NCATS)
# Inconclusive means that the source gave no clear call. Such entries were picked first, then a sample of the others. For part of these data: Where the call is inconclusive, the potency comes from a doubtful curve fit. The source made the active and inactive calls. Unless noted, the call rests on the fitted dose curve; in most records, active means well fitted curve in the direction sought with a large enough effect; inconclusive means small, poorly fitted or top-dose-only effect, or another doubt; inactive means no such curve, though single readings can be large; an effect the other way counts as inactive or inconclusive.
# Legend:
# [1] = Quantitative High-Throughput drug screen in 47 multiple myeloma cell lines against the NCATS MIPE library collection: MOLP8_DSMZ cell viability assay (AID 1918977); conditions: MOLP8 myeloma viability, CellTiter-Glo ATP luminescence, 48 h; at 45.8 µM (top of the series); further: nearly all actives have a fitted effect of over 45% in size
# Method in brief: (§1)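 MIPE 4.0 approved/investigational drugs; 500 cells/well; 48 h 37 °C humidified 5% CO2; CTG luminescence readout; DMSO = 100%, media = 0% viability.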
# [2] = Quantitative High-Throughput drug screen in 47 multiple myeloma cell lines against the NCATS MIPE library collection: NCIH929_DSMZ cell viability assay (AID 1918978); conditions: NCI-H929 myeloma viability, CellTiter-Glo ATP, 48 h; at 45.8 µM; further: nearly all actives have a fitted effect of over 35% in size
# Method in brief: as §1
# [3] = Quantitative High-Throughput drug screen in 47 multiple myeloma cell lines against the NCATS MIPE library collection: MM1S_ATCC cell viability assay (AID 1918980); further: potency means the concentration at half of the fitted maximal effect; nearly all actives have a fitted effect of over 45% in size
# Method in brief: as §1
# [4] = Quantitative High-Throughput drug screen in 47 multiple myeloma cell lines against the NCATS MIPE library collection: MM1R_ATCC cell viability assay (AID 1918981); conditions: MM1R multiple myeloma cells, CellTiter-Glo viability, 48 h; at 45.8 µM; further: nearly all actives have a fitted effect of over 35% in size
# Method in brief: as §1
# [5] = Quantitative High-Throughput drug screen in 47 multiple myeloma cell lines against the NCATS MIPE library collection: L363_DSMZ cell viability assay (AID 1918984); conditions: L363 myeloma viability, CellTiter-Glo ATP luminescence, 48 h; further: potency means the concentration at half of the fitted maximal effect; nearly all actives have a fitted effect of over 40% in size
# Method in brief: as §1
# [6] = Quantitative High-Throughput drug screen in 47 multiple myeloma cell lines against the NCATS MIPE library collection: KMS34_JCRB cell viability assay (AID 1918985); further: nearly all actives have a fitted effect of over 40% in size
# Method in brief: as §1
# [7] = Quantitative High-Throughput drug screen in 47 multiple myeloma cell lines against the NCATS MIPE library collection: OCIMY7_PLB cell viability assay (AID 1918987); conditions: OCI-MY7 myeloma viability, CellTiter-Glo ATP, 48 h; further: potency means the concentration at half of the fitted maximal effect; nearly all actives have a fitted effect of over 65% in size
# Method in brief: as §1
# [8] = Quantitative High-Throughput drug screen in 47 multiple myeloma cell lines against the NCATS MIPE library collection: OCIMY5_PLB cell viability assay (AID 1918988); further: potency means the concentration at half of the fitted maximal effect; nearly all actives have a fitted effect of over 65% in size
# Method in brief: as §1
# [9] = Quantitative High-Throughput drug screen in 47 multiple myeloma cell lines against the NCATS MIPE library collection: OPM1_PLB cell viability assay (AID 1918989); conditions: CellTiter-Glo, 48 h; further: potency means the concentration at half of the fitted maximal effect; nearly all actives have a fitted effect of over 40% in size
# Method in brief: as §1
# [10] = Quantitative High-Throughput drug screen in 47 multiple myeloma cell lines against the NCATS MIPE library collection: SKMM1_PLB cell viability assay (AID 1919863); conditions: SKMM1 myeloma viability, CellTiter-Glo ATP, 48 h; viability: stronger effect = lower value; further: nearly all actives have a fitted effect of over 35% in size
# Method in brief: as §1
# [11] = Quantitative High-Throughput drug screen in 47 multiple myeloma cell lines against the NCATS MIPE library collection: U266_ATCC cell viability assay (AID 1919864); conditions: U266 myeloma viability, CellTiter-Glo ATP luminescence, 48 h; further: potency means the concentration at half of the fitted maximal effect; nearly all actives have a fitted effect of over 35% in size
# Method in brief: as §1
# [12] = Quantitative High-Throughput drug screen in 47 multiple myeloma cell lines against the NCATS MIPE library collection: XG6_PLB cell viability assay (AID 1919865); conditions: XG6 myeloma viability, CellTiter-Glo ATP luminescence, 48 h; further: potency means the concentration at half of the fitted maximal effect; nearly all actives have a fitted effect of over 40% in size
# Method in brief: as §1
# [13] = Quantitative High-Throughput drug screen in 47 multiple myeloma cell lines against the NCATS MIPE library collection: VP6_DJ cell viability assay (AID 1919867); conditions: ATP luminescence, 48 h
# Method in brief: as §1
# [14] = Quantitative High-Throughput drug screen in 47 multiple myeloma cell lines against the NCATS MIPE library collection: UTMC2_PLB cell viability assay (AID 1919868); further: nearly all actives have a fitted effect of over 55% in size
# Method in brief: as §1
# [15] = Quantitative High-Throughput drug screen in 47 multiple myeloma cell lines against the NCATS MIPE library collection: RPMI8226_ATCC cell viability assay (AID 1919871); conditions: RPMI8226 myeloma viability, CellTiter-Glo ATP luminescence, 48 h; further: potency means the concentration at half of the fitted maximal effect; nearly all actives have a fitted effect of over 30% in size
# Method in brief: as §1
# [16] = Quantitative High-Throughput drug screen in 47 multiple myeloma cell lines against the NCATS MIPE library collection: OPM2_DSMZ cell viability assay (AID 1919872); further: nearly all actives have a fitted effect of over 30% in size
# Method in brief: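 CellTiter-Glo luminescence (ATP) after 48 h compound exposure, 37C/5% CO2; 500 cells/well; MIPE 4.0 approved/investigational drugs pinned in; DMSO = 100%, media only = 0% viability.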
# [17] = Quantitative High-Throughput drug screen in 47 multiple myeloma cell lines against the NCATS MIPE library collection: KMS28BM_JCRB cell viability assay (AID 1919874); conditions: CellTiter-Glo ATP, 48 h
# Method in brief: as §1
# [18] = qHTS for identification of novel therapeutic agents for treatment of microphthalmiaassociated transcription factor (MiT) renal cell carcinoma (RCC) (AID 1963991; calls by dose curve; further: potency means the concentration at half of the fitted maximal effect); conditions: TFE3-RCC UOK109 viability, CellTiter-Glo, 48 h
# Method in brief: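 UOK109/UOK124/UOK145 (TFE3 fusions, three partners); 500 cells/well; MIPE v4.0, 1912 cpds, 11 conc.; 48 h, 37 C; CellTiter-Glo, 15 min RT; lum. Norm.: DMSO 100%, empty 0%.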
# [19] = Cytometric Cell-Based qHTS for Inhibitors of the mTORC1 Signaling Pathway in MEF (Tsc2-/-, p53-/-) Cells (AID 2660); further: potency means the concentration at half of the fitted maximal effect
# Method in brief: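 Cells are plated, treated with compound for 24 hrs at 37 degree Celsius, then fixed, blocked and immunostained for phospho-rpS6 Ser235/236. Propidium iodide counterstain follows. Per-well % positive cells is derived from the PI-normalized phospho-S6 signal.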
# [20] = target: Arylsulfatase A (Homo sapiens) (UniProt P15289); assay: qHTS screen for enhancers of Arylsulfatase A (ASA1): LOPAC Validation Assay (AID 720538); further: 0% is about no effect
# Method in brief: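 Read-out: fluorescence at Ex=525/Em=598 nm after 1N NaOH final stop. Patient fibroblasts carrying ASA-I179S had 48h compound exposure, then 14h room-temperature pNCS hydrolysis (0.5mM final) in lysis buffer. Signal increase = enhanced activity.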
# [21] = target: Nucleoprotein (Lymphocytic choriomeningitis virus (strain Armstrong)) (UniProt P09992); assay: qHTS for Inhibitors of the Functional Ribonucleoprotein Complex (vRNP) of Lymphocytic Choriomeningitis Arenaviruses (LCMV): LCMV Primary Screen - GLuc reporter signal (AID 1347086; calls by dose curve; further: nearly all actives have a fitted effect of over 70% in size; further: potency means the concentration at half of the fitted maximal effect; on activity change, negative = inhibition: on the % scale 0 is the no-effect control and ±100 the full control effect); conditions: LCMV minigenome vRNP cell assay, Gaussia luciferase reporter; activity change, negative = inhibition: at 57.5 µM (top of the series) unless noted
# [22] = Cytotoxicity counterscreen for inhibitors of SARS-CoV-2 cell entry (AID 1645845; calls by dose curve; further: potency means the concentration at half of the fitted maximal effect; nearly all actives have a fitted effect of over 50% in size); conditions: activity change, negative = cytotoxicity: at 57.1 µM (top of the series) unless noted
# Method in brief: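 Expi293F/hACE2 cells seeded overnight; cpd pin-transferred in DMSO, 1 h preincubation, + media, 48 h 37 C 5% CO2; ATPLite 1step luminescence; normalized to cells and no cells.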
# [23] = Primary qHTS to identify inhibitors of SARS-CoV-2 cell entry (AID 1645846; calls by dose curve; further: nearly all actives have a fitted effect of over 45% in size; further: potency means the concentration at half of the fitted maximal effect); conditions: activity change, negative = inhibition: at 57.1 µM (top of the series)
# Method in brief: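 HEK293-ACE2 (Expi293F, stable hACE2), 1500 cells/well, o/n 37C; cpd 23 nL pin, 1 h; MLV-PP w/ SARS-CoV-2-S (Wuhan-Hu-1, Δ19 C-term); 48 h 37C; Bright-Glo luminescence; normalized vs S-PP and bald PP.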
# [24] = Validation screen for inhibitors of Lassa infection (AID 463096; calls by dose curve; further: potency means the concentration at half of the fitted maximal effect)
structure (smiles),measurement,setting,value
C[C@]12CC[C@H](O)CC1=CC[C@H]1[C@H]3CCC(=O)[C@@]3(C)CC[C@@H]12,viability (% of control),[1],inactive: 72.2%
same,"viability, % of control",[2],inactive: 105%
same,Potency,[3],"inconclusive: 18.7 µM [cytotoxic, partial curve, poor fit]"
same,viability (% of control),[4],inactive: 93.9%
same,Potency,[5],"inconclusive: 9.35 µM [cytotoxic, full curve, poor fit]"
same,Potency,[6],inactive
same,Potency,[7],"inconclusive: 3.72 µM [cytotoxic, full curve, poor fit]"
same,Potency,[8],"inconclusive: 29.6 µM [cytotoxic, partial curve, poor fit]"
same,Potency,[9],"inconclusive: 23.5 µM [cytotoxic, single point]"
same,viability,[10],inactive: 106%
same,Potency,[11],"inconclusive: 0.332 µM [cytotoxic, full curve, poor fit]"
same,Potency,[12],"inconclusive: 5.9 µM [cytotoxic, full curve]"
same,Potency,[13],"inconclusive: 9.35 µM [cytotoxic, partial curve, poor fit]"
same,Potency,[14],inactive
same,Potency,[15],"inconclusive: 5.9 µM [cytotoxic, single point]"
same,Potency,[16],inactive
same,Potency,[17],"inconclusive: 33.2 µM [cytotoxic, single point]"
same,Potency,[18],inconclusive: 0.264 µM
CC(=O)O[C@H]1C[C@@H]2CC[C@@H]3[C@H](CC[C@@]4(C)[C@H]3C[C@H]([N+]3(C)CCCCC3)[C@@H]4OC(C)=O)[C@@]2(C)C[C@@H]1[N+]1(C)CCCCC1,Potency,[19],"inconclusive: 0.208 µM [falling, partial curve, poor fit]"
same,Potency,[20],inactive
same,Potency,[21],inactive
COc1cccc(-c2ccc(NC(=O)C3=C(C(=O)O)CCC3)c(F)c2)c1,Potency,[21],"inconclusive: 7.69 µM [inhibitor, partial curve, poor fit]"
same,Potency,[22],"inconclusive: 3.55 µM [cytotoxic, full curve, poor fit]"
same,Potency,[23],"inconclusive: 1.12 µM [inhibitor, full curve, poor fit]"
COc1ccc(Nc2nccc(NCCO)n2)cc1,Potency,[21],inactive
same,Potency,[23],inactive
C/C(=C(/OCCOc1ccc(Cl)cc1)c1ccc(Cl)cc1Cl)n1ccnc1,Potency,[21],inactive
same,Potency,[22],"inconclusive: 39.8 µM [cytotoxic, partial curve, poor fit]"
same,Potency,[23],"inconclusive: 20 µM [inhibitor, partial curve, poor fit]"
CC(N)(Cc1ccc(O)cc1)C(=O)O (stereo not drawn),Potency,[24],"inconclusive: 0.0032 µM [activator, full curve, poor fit]"
same,Potency,[21],inactive
O=Nc1ccc2oc(=O)ccc2c1,Potency,[24],"inconclusive: 14.1 µM [inhibitor, partial curve, poor fit]"
same,Potency,[21],inactive

# Pulled one by one from the entries so far (2):
structure (smiles),measurement,setting,value
CC(N)(Cc1ccc(O)cc1)C(=O)O (stereo not drawn),Potency,[21],inactive
same,Potency,[24],"inconclusive: 0.0032 µM [activator, full curve, poor fit]"
